Data as given in PMC7049960.
Results are given in words; binding and its absence hold for the method and conditions named. Binding seen in cells or lysates may run through a third protein. A yes stands for co-enrichment or nearness to the bait. Other partners may have been found.

T1: ATF4 bZIP TAP construct (mouse) (UniProt Q06507)
T1 sequence: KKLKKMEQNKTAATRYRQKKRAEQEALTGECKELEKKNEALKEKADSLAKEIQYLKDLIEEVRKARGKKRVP

B1: cavin-4/MURC (protein, UniProt A2AMM0 1-362)
chain: MEHNGSASNAGKIHQNRLSSVTEDEDQDAALTIVTVLDRVASVVDSVQASQKRIEERHREMGNAIKSVQIDLLKLSQSHSNTGYVVNKLFEKTRKVSAHIKDVKARVEKQQVRVTKVETKQEEIMKKNKFRVVIFQEDIPCPASLSVVKDRSLPENQEEAEEVFDPPIELSSDEEYYVEESRSARLRKSGKEHIDHIKKAFSRENMQKTRQTLDKKVSGIRTRIVTPERRERLRQSGERLRQSGERLRQSGERFKKSISSAAPSKEAFKIRSLRKAKDPKAEGQEVDRGMGVDIISGSLALGPIHEFHSDEFSETEKEVTKGGYSPQEGGDPPTPEPLKVTFKPQVRVEDDESLLLELKQSS
B2: syncoilin (protein, UniProt Q9EPM5 1-470)
chain: MASPEPLRGGDGARASREPHTEASFPLQESESPKEAKTFNPEATLSLEGTVNLEDILYLGASGDFEESFYEEEYEKPALTLFIDESRQPDEALGLEEPVRPEEMLSVEESVTPDEVQISEQPVEPAKSPTACEGEMVATEGSLPAQPIPNTEEDPLSVEDLERLEARFQQCVQAVSQLEEERDQLIHELVLLREPALQEVQQVHQDILAAYKLHAQAELERDGLREEIRTVKQKLFKVTKECVAYQYQLECRQQDVAQFADCREALTTRAAQLSEELTQLRDACQKQKEQLQQQLEAPPTQSDGHFLQESRRLSTQFENLMAESRQGLEEEYEPQLLRLLERKEAGTKALQDTQAEIQEMREALRPLEAEARQLQLQNRNLEDQITLVRQKRDEEVQQYREQLEEMEERQRQLRSGVQVQQQKNKEMERLRMSLAEELSTYKAMLPKSLEQADAPTSQAGGVEAQSPGTV
B3: C/EBPδ (protein, UniProt Q00322 1-268)
chain: MSAALFSLDSPVRGTPWPTEPAAFYEPGRVDKPGRGPEPGDLGELGSTTPAMYDDESAIDFSAYIDSMAAVPTLELCHDELFADLFNSNHKAAGAGGLELLQGGPTRPPGVGSVARGPLKREPDWGDGDAPGSLLPAQVAVCAQTVVSLAAAAQPTPPTSPEPPRGSPGPSLAPGTVREKGAGKRGPDRGSPEYRQRRERNNIAVRKSRDKAKRRNQEMQQKLVELSAENEKLHQRVEQLTRDLAGLRQFFKKLPSPPFLPPTGADCR
B4: C/EBPγ (protein, UniProt P53568 1-150)
chain: MSKLSQPATTPGVNGISVIHTQAHASGLQQVPQLVPAGPGGGGKAVPPSKQSKKSSPMDRNSDEYRQRRERNNMAVKKSRLKSKQKAQDTLQRVNQLKEENERLEAKIKLLTKELSVLKDLFLEHAHSLADNVQPISTETTATNSDNPGQ
B5: leucine zipper protein 1 (LUZP1) (protein, UniProt Q8R4U7 1-1068)
chain: MAELTNYKDAASNRHLRFKLQSLSRRLDELEEATKNLQRAEDELLDLQDKVIQAEGSDSSTLAEIEVLRQRVLKIEGKDEEIKRAEDLCHTMKEKLEEEENLTRELKSEIERLQKRMVDLEKLEEALSRSKNECSQLCLSLNEERNLTKKISSELEMLRVKVKELESSEDRLDKTEQSLVSELEKLKSLTLSFVNERKYLNEKEKENEKIIKELTQKLEQNKKMNRDHMRNASTFLERNDLRIEDGISSTLSSKESKRKGSLDYLKQVENETRDKSENEKNRNQEDNKVKDLNQEIEKLKTQIKHFESLEEELKKMRAKNNDLQDNYLTELNRNRSLASQLEEIKLQVRKQKELGNGDIEGEDAFLLGRGRHERTKLKGHGSEASVSKHTSRELSPQHKRERLRNREFALSNEHYSLSSKQASSPVFTNKRAAKASNMGMGTDSGTQETKRTEDRFAPGSSHSEGKRGREQPSVLSRYPPAAQEHTKVWKGAPKPGTESGLKGKVEKTTRTFSDSTHVSVPNDIVGKGDKTSDLSSEAHCGKRGQVPGHASQGTQAVESSCSKAIGALSSSQKASSEGLSKGKKTANGLAADANFSNSKAPILSKYPYSSRSQENILQGFSLPNKEGVDQPVAVVMEDSSQHEALRCRVIKSSGREKPDSDDDLDIESFVTAKLVNTTITPEPEPKPQPNSREKVKSRGGTRTALFENDKNAAIENDSVKPTRPSSNAIEFPDANCAGVKNQRPFSPREALRSRAIIKPVIIDKDVKKIMGGSGTEVVLEKQKSTSKSVTSKVTSSITIYPSDSSGPRAVPSEAPRERHTSTSNIQVGPPELTAISNHVSSPLELSIHKHDITLQLTEAERVGDGSPKNRAEMVVSRSSILIKPSESVEKNSHVPPAETIRWKSHSASSDSRHITVRNAWKSKRDLKCSEDPPTGIGRNMEATNAYTQRPCTDFLELEQPRSQPSEQGARRVGNSGDAPELSPRRTQSSLTASEVLTRRDRMGGAITAASCNHSSSMEEGEDSTFVTSRRIHNPLEHSELPGKQGLPEPEPVWTEERLHPAKPYAEED
B6: cavin-1/PTRF (protein, UniProt O54724 1-392)
chain: MEDVTLHIVERPYSGFPDASSEGPEPTQGEARATEEPSGTGSDELIKSDQVNGVLVLSLLDKIIGAVDQIQLTQAQLEERQAEMEGAVQSIQGELSKLGKAHATTSNTVSKLLEKVRKVSVNVKTVRGSLERQAGQIKKLEVNEAELLRRRNFKVMIYQDEVKLPAKLSVSKSLKESEALPEKEGDELGEGERPEDDTAAIELSSDEAVEVEEVIEESRAERIKRSGLRRVDDFKKAFSKEKMEKTKVRTRENLEKTRLKTKENLEKTRHTLEKRMNKLGTRLVPVERREKLKTSRDKLRKSFTPDHVVYARSKTAVYKVPPFTFHVKKIREGEVEVLKATEMVEVGPEDDEVGAERGEATDLLRGSSPDVHTLLEITEESDAVLVDKSDSD
B7: cavin-2/SDPR (protein, UniProt Q63918 1-418)
chain: MGEDAAQAEKFQHPNTDMLQEKPSSPSPMPSSTPSPSLNLGSTEEAIRDNSQVNAVTVHTLLDKLVNMLDAVRENQHNMEQRQINLEGSVKGIQNDLTKLSKYQASTSNTVSKLLEKSRKVSAHTRAVRERLERQCVQVKRLENNHAQLLRRNHFKVLIFQEESEIPASVFVKEPVPSAAEGKEELADENKSLEETLHNVDLSSDDELPRDEEALEDSAEEKMEESRAEKIKRSSLKKVDSLKKAFSRQNIEKKMNKLGTKIVSVERREKIKKSLTPNHQKASSGKSSPFKVSPLSFGRKKVREGESSVENETKLEDQMQEDREEGSFTEGLSEASLPSGLMEGSAEDAEKSARRGNNSAVGSNADLTIEEDEEEEPVALQQAQQVRYESGYMLNSEEMEEPSEKQVQPAVLHVDQTA

Molecular target: T1, ATF4 bZIP TAP construct (mouse)
Experiment: affinity purification with mass spectrometry; tandem affinity purification of the FLAG- and S-tagged ATF4 bZIP domain expressed in mouse TA muscle fibers in vivo (16 mice, 7 days after transfection); pooled muscle extracts, anti-FLAG magnetic beads, elution with 3X-FLAG peptide, then S-protein agarose; 50 mM HEPES pH 7.0, 150 mM NaCl, 5 mM MgCl2, 2 mM EGTA, 0.1-0.5% Triton X-100, 4 °C; LC-MS/MS; two independent experiments; empty TAP construct as control

Row | Binder | binding
1 | B1 | binds
2 | B2 | binds
3 | B3 | binds
4 | B4 | binds
5 | B5 | binds
6 | B6 | binds
7 | B7 | binds
